In patent US11135246B2, “Peptides and combination of peptides for use in immunotherapy against leukemias and other cancers” (Immatics Biotechnologies GmbH, priority 2017, dated 2021):

Test system: HLA molecules of primary tumor samples
Test: Identification of tumor associated peptides presented on the cell surface (HLA immune precipitation, LC-MS)
Parameters: species or system human
Settings: for Peptide Presentation on cancer entities: entities on which the peptide was presented, CLL = chronic lymphocytic leukemia, AML = acute myeloid leukemia, CML = Chronic myeloid leukemia; for Peptide Presentation on tumor types: tumor entities on which the peptide was found presented (Table 8b)

Row | Substance | Peptide Presentation on cancer entities | Peptide Presentation on tumor types
1 | 184 (RMPPFTQAF; listed as Homo sapiens) [compound 184] | CLL | BRCA, GBC, GC, MEL, NHL, NSCLCadeno, NSCLCother, NSCLCsquam, OC, PACA, PRCA, RCC, SCLC
2 | 185 (SEGDNVESW; listed as Homo sapiens) [compound 185] | CLL | NHL
3 | 186 (NEQKIVRF; listed as Homo sapiens) [compound 186] | CLL | 
4 | 187 (SDAQRPSSF; listed as Homo sapiens) [compound 187] | CLL | NSCLCother, RCC
5 | 188 (YVDAGTPMY; listed as Homo sapiens) [compound 188] | CLL | GBC, GBM, GC, NSCLCadeno, NSCLCsquam
6 | 189 (VTEEPQRLFY; listed as Homo sapiens) [compound 189] | CLL | BRCA, CCC, GBC, GC, HCC, HNSCC, MEL, NHL, NSCLCadeno, NSCLCother, NSCLCsquam, OC, OSCAR, PACA, PRCA, SCLC, UBC, UEC
7 | 190 (HVDQDLTTY; listed as Homo sapiens) [compound 190] | AML | GBM, GC, NSCLCadeno, NSCLCother, NSCLCsquam, OC, PACA, PRCA
8 | 191 (ISEAGKDLLY; listed as Homo sapiens) [compound 191] | AML, CML, CLL | BRCA, CCC, GEJC, HNSCC, MEL, NHL, NSCLCadeno, NSCLCsquam, OSCAR, PACA, PRCA, SCLC, UEC
9 | 192 (RSDPGGGGLAY; listed as Homo sapiens) [compound 192] | AML | BRCA, CRC, GBC, GBM, GC, GEJC, HCC, HNSCC, MEL, NHL, NSCLCadeno, NSCLCother, NSCLCsquam, OC, OSCAR, PACA, PRCA, SCLC, UBC, UEC
10 | 193 (LTDSEKGNSY; listed as Homo sapiens) [compound 193] | CLL | GBC, GEJC, HCC, HNSCC, MEL, NHL, NSCLCadeno, NSCLCsquam, OC, PRCA
11 | 194 (YTDKKSIIY; listed as Homo sapiens) [compound 194] | CLL | 
12 | 195 (YSDKEFAGSY; listed as Homo sapiens) [compound 195] | CLL | BRCA, CRC, GBC, GBM, GC, GEJC, HCC, HNSCC, MEL, NHL, NSCLCadeno, NSCLCother, NSCLCsquam, OSCAR, PACA, PRCA, RCC, SCLC, UBC, UEC
13 | 196 (FTDIDGQVY; listed as Homo sapiens) [compound 196] | CLL | BRCA, CCC, CRC, GBC, GBM, GC, HCC, HNSCC, MEL, NHL, NSCLCadeno, NSCLCother, NSCLCsquam, OSCAR, PACA, PRCA, RCC, SCLC, UBC, UEC
14 | 197 (SLADVHIEV; listed as Homo sapiens) [compound 197] | CLL | BRCA, CCC, CRC, GBC, GBM, GC, GEJC, HCC, HNSCC, MEL, NHL, NSCLCadeno, NSCLCother, NSCLCsquam, OC, OSCAR, PACA, PRCA, RCC, SCLC, UBC, UEC
15 | 198 (KLLGYDVHV; listed as Homo sapiens) [compound 198] | AML | BRCA, CRC, NHL, NSCLCother, OC, RCC, UEC
16 | 199 (AMPDSPAEV; listed as Homo sapiens) [compound 199] | AML | HNSCC, NHL, NSCLCadeno

Row | Substance | Peptide Presentation on cancer entities | Peptide Presentation on tumor types
17 | 200 (VMLQINPKL; listed as Homo sapiens) [compound 200] | CLL | BRCA, GBC, GBM, HCC, HNSCC, MEL, NHL, NSCLCadeno, NSCLCother, NSCLCsquam, OC, OSCAR, RCC, SCLC, UEC
18 | 201 (ILAAVETRL; listed as Homo sapiens) [compound 201] | CLL | BRCA, CCC, CRC, GBC, GBM, GC, GEJC, HCC, HNSCC, MEL, NHL, NSCLCadeno, NSCLCother, NSCLCsquam, OC, OSCAR, PACA, PRCA, RCC, SCLC, UBC, UEC
19 | 202 (MVALPMVLV; listed as Homo sapiens) [compound 202] | CLL | 
20 | 203 (FLLPKVQSI; listed as Homo sapiens) [compound 203] | CLL | BRCA, HCC, MEL, NHL, NSCLCadeno, NSCLCother, NSCLCsquam, OC, OSCAR
21 | 204 (FLLPKVQSIQL; listed as Homo sapiens) [compound 204] | CLL | MEL, NSCLCadeno, NSCLCother, NSCLCsquam
22 | 205 (FLINTNSEL; listed as Homo sapiens) [compound 205] | CLL | BRCA, CCC, CRC, GBC, GBM, GC, GEJC, HCC, HNSCC, MEL, NHL, NSCLCadeno, NSCLCother, NSCLCsquam, OC, OSCAR, PACA, PRCA, RCC, SCLC, UBC, UEC
23 | 206 (SLMDLQERL; listed as Homo sapiens) [compound 206] | CLL | BRCA, CCC, CRC, GBC, GBM, GEJC, HCC, HNSCC, MEL, NHL, NSCLCadeno, NSCLCother, NSCLCsquam, OC, OSCAR, PACA, PRCA, RCC, SCLC, UEC
24 | 207 (KLSDNILKL; listed as Homo sapiens) [compound 207] | CLL | CRC, GBC, MEL, NHL, PRCA
25 | 208 (KLNPQQAPLY; listed as Homo sapiens) [compound 208] | CLL | MEL, NHL, OSCAR, UEC
26 | 209 (KTLPAMLGTGK; listed as Homo sapiens) [compound 209] | CLL | NHL, OC
27 | 210 (RMYSQLKTLQK; listed as Homo sapiens) [compound 210] | CLL | MEL, NHL
28 | 211 (ATYNKQPMYR; listed as Homo sapiens) [compound 211] | CML | CCC, CRC, GBC, GC, MEL, NHL, NSCLCadeno, NSCLCsquam, OC, OSCAR, RCC, SCLC, UEC
29 | 212 (LLWHWDTTQSLK; listed as Homo sapiens) [compound 212] | CLL | 
30 | 213 (RVYNIYIRR; listed as Homo sapiens) [compound 213] | AML | NHL, NSCLCadeno, OC
31 | 214 (ATGAATPKK; listed as Homo sapiens) [compound 214] | CLL | 
32 | 215 (KATGAATPK; listed as Homo sapiens) [compound 215] | CLL | NSCLCsquam
